Whole data set: some 1,900 compounds, median “excess over highest single agent (ExcessHSA) synergy score, 6x6 matrix” near -83, cut for the lowest 2% near -370. The list shows a part of the results.
Each compound was assayed on NCI-H446 (assay: excess over highest single agent (ExcessHSA) synergy score, 6x6 matrix; higher = less synergy (more negative = stronger synergy)). Conditions: 72 h; CellTiter-Glo viability.
In the case of `CCOc1ccc(Cc2cc([C@@H]3O[C@H](CO)[C@@H](O)[C@H](O)[C@H]3O)ccc2Cl)cc1` + Cc1sc2c(c1C)C(c1ccc(Cl)cc1)=N[C@@H](CC(=O)OC(C)(C)C)c1nnc(C)n1-2 [NCGC00250412-19], the “excess over highest single agent” value is reported as -1.43.
For `O=c1cc(CN2CCOCC2)occ1OCCCCCSc1ccnc2cc(C(F)(F)F)ccc12` + Cc1sc2c(c1C)C(c1ccc(Cl)cc1)=N[C@@H](CC(=O)OC(C)(C)C)c1nnc(C)n1-2 [NCGC00250412-19], the “excess over highest single agent” value was -106.
With `O=C(O)c1cc(=O)c2c(OCC(O)COc3cccc4oc(C(=O)O)cc(=O)c34)cccc2o1` + Cc1sc2c(c1C)C(c1ccc(Cl)cc1)=N[C@@H](CC(=O)OC(C)(C)C)c1nnc(C)n1-2 [NCGC00250412-19] the “excess over highest single agent” value was -36.5.
`Oc1ccc(C2=Cc3ccc(O)cc3OC2)cc1` + Cc1sc2c(c1C)C(c1ccc(Cl)cc1)=N[C@@H](CC(=O)OC(C)(C)C)c1nnc(C)n1-2 [NCGC00250412-19] was tested, and the “excess over highest single agent” value was -209.
For `Cc1ccc(O)c([C@H](CCN(C(C)C)C(C)C)c2ccccc2)c1` + Cc1sc2c(c1C)C(c1ccc(Cl)cc1)=N[C@@H](CC(=O)OC(C)(C)C)c1nnc(C)n1-2 [NCGC00250412-19], the “excess over highest single agent” value was -50.3.
`CC(C)c1cccc(C(C)C)c1O` + Cc1sc2c(c1C)C(c1ccc(Cl)cc1)=N[C@@H](CC(=O)OC(C)(C)C)c1nnc(C)n1-2 [NCGC00250412-19] was tested, and the “excess over highest single agent” value was -180.
`CCCCOc1ccc(CC(=O)NO)cc1` + Cc1sc2c(c1C)C(c1ccc(Cl)cc1)=N[C@@H](CC(=O)OC(C)(C)C)c1nnc(C)n1-2 [NCGC00250412-19] was tested, and the “excess over highest single agent” value was 194.
For `NC[C@H]1CC[C@H](C(=O)O)CC1` + Cc1sc2c(c1C)C(c1ccc(Cl)cc1)=N[C@@H](CC(=O)OC(C)(C)C)c1nnc(C)n1-2 [NCGC00250412-19], the “excess over highest single agent” value was -27.6.
With `COc1ccc2nc3cc(Cl)ccc3c(Nc3cc(CN4CCCC4)c(O)c(CN4CCCC4)c3)c2n1` + Cc1sc2c(c1C)C(c1ccc(Cl)cc1)=N[C@@H](CC(=O)OC(C)(C)C)c1nnc(C)n1-2 [NCGC00250412-19] the “excess over highest single agent” value was -49.7.
`C[C@H]1c2cccc(O)c2C(O)=C2C(=O)[C@]3(O)C(O)=C(C(N)=O)C(=O)[C@@H](N(C)C)[C@@H]3[C@@H](O)[C@@H]21` + Cc1sc2c(c1C)C(c1ccc(Cl)cc1)=N[C@@H](CC(=O)OC(C)(C)C)c1nnc(C)n1-2 [NCGC00250412-19] was tested, and the “excess over highest single agent” value was -128.
`Nc1nc(=O)c2c([nH]1)NCC(CNc1ccc(C(=O)N[C@@H](CCC(=O)O)C(=O)O)cc1)N2C=O` (some centres not stated) + Cc1sc2c(c1C)C(c1ccc(Cl)cc1)=N[C@@H](CC(=O)OC(C)(C)C)c1nnc(C)n1-2 [NCGC00250412-19] was tested, and the “excess over highest single agent” value was 19.2.
In the case of `Cc1ccccc1C(C(=O)NC1CCCC1)N(C(=O)Cn1cnc2ccccc21)c1cccc(F)c1` (configuration not stated) + Cc1sc2c(c1C)C(c1ccc(Cl)cc1)=N[C@@H](CC(=O)OC(C)(C)C)c1nnc(C)n1-2 [NCGC00250412-19], the “excess over highest single agent” value is reported as -161.
`Cn1c(=O)c(F)c(Nc2ccc(I)cc2F)c2c(=O)n(C[C@@H](O)CO)cnc21` + Cc1sc2c(c1C)C(c1ccc(Cl)cc1)=N[C@@H](CC(=O)OC(C)(C)C)c1nnc(C)n1-2 [NCGC00250412-19] was tested, and the “excess over highest single agent” value was -396.
With `CN[C@@H]1Cc2cccc3[nH]c(=O)n(c23)C1` + Cc1sc2c(c1C)C(c1ccc(Cl)cc1)=N[C@@H](CC(=O)OC(C)(C)C)c1nnc(C)n1-2 [NCGC00250412-19] the “excess over highest single agent” value was -180.
`COc1ccc(-c2cc3c(C)nc(N)nc3n([C@H]3CC[C@H](OCCO)CC3)c2=O)cn1` + Cc1sc2c(c1C)C(c1ccc(Cl)cc1)=N[C@@H](CC(=O)OC(C)(C)C)c1nnc(C)n1-2 [NCGC00250412-19] was tested, and the “excess over highest single agent” value was -297.
`O=c1[nH]c(=O)n([C@H]2C[C@H](O)[C@@H](CO)O2)cc1/C=C/Br` + Cc1sc2c(c1C)C(c1ccc(Cl)cc1)=N[C@@H](CC(=O)OC(C)(C)C)c1nnc(C)n1-2 [NCGC00250412-19] was tested, and the “excess over highest single agent” value was -69.9.
With `CCC(C)(C)c1ccc(CC(C)CN2C[C@@H](C)O[C@@H](C)C2)cc1` (some centres not stated) + Cc1sc2c(c1C)C(c1ccc(Cl)cc1)=N[C@@H](CC(=O)OC(C)(C)C)c1nnc(C)n1-2 [NCGC00250412-19] the “excess over highest single agent” value was -69.1.
With `CCOC(=O)c1ccc(C#Cc2ccc3c(c2)C(C)(C)CCS3)nc1` + Cc1sc2c(c1C)C(c1ccc(Cl)cc1)=N[C@@H](CC(=O)OC(C)(C)C)c1nnc(C)n1-2 [NCGC00250412-19] the “excess over highest single agent” value was -68.9.
`Cc1c(N)nc([C@H](CC(N)=O)NC[C@@H](N)C(N)=O)nc1C(=O)N[C@H](C(=O)N[C@@H](C)[C@H](O)[C@@H](C)C(=O)N[C@@H](C(=O)NCCc1nc(-c2nc(C(=O)NCCC[S+](C)C)cs2)cs1)[C@@H](C)O)C(O[C@H]1O[C@H](CO)[C@H](O)[C@@H](O)[C@H]1O[C@H]1O[C@H](CO)[C@@H](O)[C@H](OC(N)=O)[C@@H]1O)c1cnc[nH]1` (some centres not stated) + Cc1sc2c(c1C)C(c1ccc(Cl)cc1)=N[C@@H](CC(=O)OC(C)(C)C)c1nnc(C)n1-2 [NCGC00250412-19] was tested, and the “excess over highest single agent” value was -335.
In the case of `CC(C)(C)C#Cc1cc(N(C(=O)[C@H]2CC[C@H](C)CC2)[C@H]2CC[C@H](O)CC2)c(C(=O)O)s1` + Cc1sc2c(c1C)C(c1ccc(Cl)cc1)=N[C@@H](CC(=O)OC(C)(C)C)c1nnc(C)n1-2 [NCGC00250412-19], the “excess over highest single agent” value is reported as -16.2.
For `O=C(NC1CC1)c1cccc(-c2ccc3c(NC(=O)C4CC4)n[nH]c3c2)c1` + Cc1sc2c(c1C)C(c1ccc(Cl)cc1)=N[C@@H](CC(=O)OC(C)(C)C)c1nnc(C)n1-2 [NCGC00250412-19], the “excess over highest single agent” value was -148.
In the case of `CC(CCc1ccc(O)cc1)NCCc1ccc(O)c(O)c1` (configuration not stated) + Cc1sc2c(c1C)C(c1ccc(Cl)cc1)=N[C@@H](CC(=O)OC(C)(C)C)c1nnc(C)n1-2 [NCGC00250412-19], the “excess over highest single agent” value is reported as -18.6.
`CCCNS(=O)(=O)Nc1ncnc(OCCOc2ncc(Br)cn2)c1-c1ccc(Br)cc1` + Cc1sc2c(c1C)C(c1ccc(Cl)cc1)=N[C@@H](CC(=O)OC(C)(C)C)c1nnc(C)n1-2 [NCGC00250412-19] was tested, and the “excess over highest single agent” value was -2.95.
`COc1ccc(-c2oc3c(CC=C(C)C)c(O)cc(O)c3c(=O)c2O)cc1` + Cc1sc2c(c1C)C(c1ccc(Cl)cc1)=N[C@@H](CC(=O)OC(C)(C)C)c1nnc(C)n1-2 [NCGC00250412-19] was tested, and the “excess over highest single agent” value was -15.1.
In the case of `O=C1C(Cl)=C(NCCN2CCOCC2)C(=O)c2ncccc21` + Cc1sc2c(c1C)C(c1ccc(Cl)cc1)=N[C@@H](CC(=O)OC(C)(C)C)c1nnc(C)n1-2 [NCGC00250412-19], the “excess over highest single agent” value is reported as 3.89.
For `O=C(CCN1CCN(C(=O)OCc2cc(Cl)cc(Cl)c2)CC1)c1ccc2[nH]c(=O)oc2c1` + Cc1sc2c(c1C)C(c1ccc(Cl)cc1)=N[C@@H](CC(=O)OC(C)(C)C)c1nnc(C)n1-2 [NCGC00250412-19], the “excess over highest single agent” value was -78.3.
`Nc1ccc(S(N)(=O)=O)cc1` + Cc1sc2c(c1C)C(c1ccc(Cl)cc1)=N[C@@H](CC(=O)OC(C)(C)C)c1nnc(C)n1-2 [NCGC00250412-19] was tested, and the “excess over highest single agent” value was -34.5.
`CCN(CC)CCCCNc1ncc2c(n1)N(C)C(=O)N(c1c(Cl)c(OC)cc(OC)c1Cl)C2` + Cc1sc2c(c1C)C(c1ccc(Cl)cc1)=N[C@@H](CC(=O)OC(C)(C)C)c1nnc(C)n1-2 [NCGC00250412-19] was tested, and the “excess over highest single agent” value was 13.2.
`CC(C)C[C@H](NC(=O)c1cc2ccccc2s1)C(=O)N1CCN(C(=O)[C@H](CO)NS(=O)(=O)c2ccc(Cl)cc2Cl)CC1` + Cc1sc2c(c1C)C(c1ccc(Cl)cc1)=N[C@@H](CC(=O)OC(C)(C)C)c1nnc(C)n1-2 [NCGC00250412-19] was tested, and the “excess over highest single agent” value was -254.
`O=[N+]([O-])c1ncc[nH]1` + Cc1sc2c(c1C)C(c1ccc(Cl)cc1)=N[C@@H](CC(=O)OC(C)(C)C)c1nnc(C)n1-2 [NCGC00250412-19] was tested, and the “excess over highest single agent” value was -37.9.
`CC(C)(Oc1ccc(C2CC2(Cl)Cl)cc1)C(=O)O` (configuration not stated) + Cc1sc2c(c1C)C(c1ccc(Cl)cc1)=N[C@@H](CC(=O)OC(C)(C)C)c1nnc(C)n1-2 [NCGC00250412-19] was tested, and the “excess over highest single agent” value was -55.3.
For `c1ccc2c(-c3cnn4cc(-c5ccc(N6CCNCC6)cc5)cnc34)ccnc2c1` + Cc1sc2c(c1C)C(c1ccc(Cl)cc1)=N[C@@H](CC(=O)OC(C)(C)C)c1nnc(C)n1-2 [NCGC00250412-19], the “excess over highest single agent” value was 77.
In the case of `NC(=O)[C@@H](CCC(F)(F)F)N(Cc1ccc(-c2ncon2)cc1F)S(=O)(=O)c1ccc(Cl)cc1` + Cc1sc2c(c1C)C(c1ccc(Cl)cc1)=N[C@@H](CC(=O)OC(C)(C)C)c1nnc(C)n1-2 [NCGC00250412-19], the “excess over highest single agent” value is reported as -180.
`Cc1[nH]c(/C=C2\C(=O)Nc3ccc(S(=O)(=O)Cc4c(Cl)cccc4Cl)cc32)c(C)c1C(=O)N1CCC[C@@H]1CN1CCCC1` + Cc1sc2c(c1C)C(c1ccc(Cl)cc1)=N[C@@H](CC(=O)OC(C)(C)C)c1nnc(C)n1-2 [NCGC00250412-19] was tested, and the “excess over highest single agent” value was -109.
For `Nc1nc(Nc2ccc(S(N)(=O)=O)cc2)nn1C(=O)c1c(F)cccc1F` + Cc1sc2c(c1C)C(c1ccc(Cl)cc1)=N[C@@H](CC(=O)OC(C)(C)C)c1nnc(C)n1-2 [NCGC00250412-19], the “excess over highest single agent” value was -304.
In the case of `CC(C)c1onc(-c2c(Cl)cccc2Cl)c1COc1ccc(/C=C/c2cccc(C(=O)O)c2)c(Cl)c1` + Cc1sc2c(c1C)C(c1ccc(Cl)cc1)=N[C@@H](CC(=O)OC(C)(C)C)c1nnc(C)n1-2 [NCGC00250412-19], the “excess over highest single agent” value is reported as -97.7.
For `COc1cc(O)c2c(c1)[C@H]1O[C@@H]1C[C@H](O)[C@H](O)C(=O)/C=C\C[C@H](C)OC2=O` + Cc1sc2c(c1C)C(c1ccc(Cl)cc1)=N[C@@H](CC(=O)OC(C)(C)C)c1nnc(C)n1-2 [NCGC00250412-19], the “excess over highest single agent” value was -154.
